Binding data for three substances are collected here from paper PMC4518267.

Amino acid sequences for entries named in this document (tags omitted).
UniProt P31749: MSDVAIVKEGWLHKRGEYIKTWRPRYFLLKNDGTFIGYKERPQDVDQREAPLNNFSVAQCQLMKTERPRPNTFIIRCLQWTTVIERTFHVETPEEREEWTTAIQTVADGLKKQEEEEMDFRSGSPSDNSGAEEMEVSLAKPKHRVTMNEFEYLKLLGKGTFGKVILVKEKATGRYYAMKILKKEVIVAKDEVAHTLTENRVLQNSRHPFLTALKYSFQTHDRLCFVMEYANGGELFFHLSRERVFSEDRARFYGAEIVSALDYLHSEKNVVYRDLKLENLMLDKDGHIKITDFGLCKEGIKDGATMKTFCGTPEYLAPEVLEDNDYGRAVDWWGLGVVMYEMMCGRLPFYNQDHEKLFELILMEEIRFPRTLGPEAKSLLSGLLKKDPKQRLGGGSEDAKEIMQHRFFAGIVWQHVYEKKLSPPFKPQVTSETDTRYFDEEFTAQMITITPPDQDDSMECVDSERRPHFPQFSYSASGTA

The target in assay [1] is T1, MKRN1, ectopically expressed (overexpressed) (UniProt Q9UHC7).
T1 sequence: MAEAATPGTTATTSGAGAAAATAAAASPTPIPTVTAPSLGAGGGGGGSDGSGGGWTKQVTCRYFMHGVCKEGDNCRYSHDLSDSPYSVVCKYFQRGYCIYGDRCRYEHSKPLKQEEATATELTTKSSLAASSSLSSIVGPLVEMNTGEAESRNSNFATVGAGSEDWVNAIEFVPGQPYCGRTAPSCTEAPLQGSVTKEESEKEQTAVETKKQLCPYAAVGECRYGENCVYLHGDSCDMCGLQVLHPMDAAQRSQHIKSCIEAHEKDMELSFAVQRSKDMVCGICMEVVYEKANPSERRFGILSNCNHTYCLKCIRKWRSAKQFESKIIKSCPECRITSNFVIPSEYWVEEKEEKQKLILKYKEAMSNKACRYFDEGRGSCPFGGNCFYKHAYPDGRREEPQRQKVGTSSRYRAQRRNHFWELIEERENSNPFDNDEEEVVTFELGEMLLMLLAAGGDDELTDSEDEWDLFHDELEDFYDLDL
Nature of the assay: co-IP; ectopically expressed (overexpressed) proteins; cells lysed in 50 mM Tris-HCl pH 7.5, 150 mM NaCl, 0.5% Triton X-100, 1 mM EDTA; 1 ug antibody, protein G agarose.

For assay [2], the target named is T2, endogenous MKRN1 of ME-180 cells (human (endogenous in ME-180)) (UniProt Q9UHC7).
T2 sequence: T1 sequence
Nature of the assay: co-IP; endogenous MKRN1 immunoprecipitated from ME-180 cells with or without EGF treatment (100 ng/ml); bound endogenous AKT1 immunoblotted.

Assay [3] deals with T3, GST-MKRN1 purified from bacteria (UniProt Q9UHC7).
T3 sequence: T1 sequence
Nature of the assay: pull-down; GST-MKRN1 purified from bacteria incubated 2 h with in vitro translated protein under cell-free conditions, pulled down by glutathione (GST) Sepharose beads, eluted in 10 mM reduced glutathione; only the target purified.

These are yes or no findings as the source states them, for the method shown. In cells and extracts the contact can be indirect. Some binding calls cover weakened binding; strength is not graded here. For part of these data: Where a sequence is shown, tags or fusion partners need not be part of it.

Turning to “AKT1, ectopically expressed (from UniProt P31749 1-480)”, the binding entry in assay [1] is reported as “binds”.
For the substance “endogenous AKT1 of ME-180 cells (from UniProt P31749 1-480)”, in assay [2], the binding result is “binds”.
Turning to “in vitro translated HA-AKT1 (from UniProt P31749 1-480)”, the binding result in assay [3] is “binds”.
